From patent publication US20240327533A1 come the findings set out here.

Amino acid sequences for entries named in this document (tags omitted). Residues count along the entry.
UniProt Q02223, residues 1-54: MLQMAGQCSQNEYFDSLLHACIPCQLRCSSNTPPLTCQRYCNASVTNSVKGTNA

For the assay, the target named is BCMA antigen (UniProt Q02223). The assay can be described thus: flow cytometry, CAR-T cells stained with BCMA antigen. (Flow cytometry measures light scatter and fluorescence of single cells or particles in a stream.)

No constants are given. Whether binding was seen depends on the method and setting. Some entries that bind do so weakly or less than the wild type.

B1: CAR-S1 (single S scFv CAR targeting BCMA, on CAR-T cells) (scFv, V domains shown)
VH: QVQLVQSGAEVKKPGASVKLSCKASGYTFTDYYIHWVRQAPGQGLEWIGYINPNSGYTNYAQKFQGRATMTADKSINTAYVELSRLRSDDTAVYFCTRYMWERVTGFFDFWGQGTMVTVSS
VL: DIQMTQSPSSVSASVGDRVTITCLASEDISDDLAWYQQKPGKAPKVLVYTTSSLQSGVPSRFSGSGSGTDFTLTISSLQPEDFATYFCQQTYKFPPTFGGGTKVEIKR
As for B1, the binding result is reported as “binds”.
